Assay results taken from PubChem BioAssay AID1347131 (National Center for Advancing Translational Sciences (NCATS), 2019).
The campaign covered roughly 410,000 compounds. About 2,000 (0.49%) were called active. Inconclusive results, whose numbers are uncertain, are shown with a selection of clear calls. Calls follow the shape of the full dose curve; tested in HEK293 reporter line. Potencies of inconclusive entries are doubtful fits and often do not repeat.
Potency is read from the fitted curve at half-maximal effect.

Assay: qHTS Assay for Foot and Mouth Disease Virus Antivirals: Primary Screen against the MLPCN compound library; also: nearly all actives have a fitted effect of over 55% in size
Settings: FMDV antiviral cell-based qHTS; activity, negative = inhibition: at 57.9 µM (top of the series)
With `Cn1c2ccccc2c2ccc3c(c21)C(=O)C=CC3=O` the Potency was inconclusive: 20 µM [inhibitor, partial curve, poor fit]. In the case of `COCCn1c(C)cc(C(=O)COC(=O)c2n[nH]c3ccccc23)c1C`, the Potency is reported as inconclusive: 11.2 µM [inhibitor, partial curve, poor fit]. For `Cc1cccc(NC(=O)c2ccc(CNS(=O)(=O)c3ccc4c(c3)C(C)(C)C(=O)N4C)cc2)c1`, the Potency was inconclusive: 35.5 µM [inhibitor, single point]. For `CCCNC1=C(N(C(C)=O)c2cccc(F)c2)C(=O)c2ccccc2C1=O`, the Potency was inconclusive: 28.2 µM [inhibitor, single point]. For `CCCS(=O)(=O)c1nnnn1-c1cccc(OC)c1`, the Potency was inconclusive: 28.2 µM [inhibitor, partial curve, poor fit]. For `O=C(/C=C/c1ccco1)N1CCN(C/C=C/c2ccccc2)CC1`, the “activity, negative = inhibition” value was inactive: -36.1%. With `COc1ccc(C)cc1NC(=O)c1cc(S(=O)(=O)N2CCc3ccccc3C2)ccc1F` the Potency was inconclusive: 7.08 µM [inhibitor, partial curve, poor fit]. With `COC(=O)C(=Cc1ccccc1[N+](=O)[O-])C(=O)OC` the Potency was inconclusive: 15.8 µM [inhibitor, partial curve, poor fit]. For `COc1ccc2cc3[n+](cc2c1OC)CCc1cc2c(cc1-3)OCO2`, the Potency was inconclusive: 31.6 µM [inhibitor, partial curve, poor fit]. With `COc1ccccc1/C=N/N1CCN(c2ccc(Cl)cc2)CC1` the Potency was inconclusive: 8.91 µM [inhibitor, partial curve, poor fit]. With `CCN1C(=O)[C@H]2[C@@H](c3ccc(C)cc3)N3C(=O)N(c4ccccc4)C(=O)[C@@]3(Cc3ccc(Cl)cc3)[C@H]2C1=O` the Potency was inconclusive: 3.55 µM [inhibitor, full curve]. For `CC(=O)c1c(C)[nH]c(C(=O)CN2CCN(S(=O)(=O)c3ccccc3F)CC2)c1C`, the Potency was inconclusive: 17.8 µM [inhibitor, partial curve, poor fit]. With `O=S(=O)(c1ccc2nc(N3CCN(c4ccccc4F)CC3)ccc2c1)N1CCCCC1` the Potency was inconclusive: 25.1 µM [inhibitor, partial curve, poor fit]. For `CCOC(=O)c1ccc(NC(=O)CCc2nc(-c3ccccc3)no2)cc1`, the Potency was inconclusive: 20 µM [inhibitor, partial curve, poor fit]. With `CC1CCCC(NC(=O)CCN2C(=O)COc3ccccc32)C1C` (stereo not drawn) the Potency was inconclusive: 1 µM [inhibitor, full curve]. In the case of `Cc1ccccc1NC(=O)c1sc2nc3c(cc2c1N)CN(Cc1ccccc1)CC3`, the Potency is reported as inconclusive: 11.2 µM [inhibitor, partial curve, poor fit]. For `Cc1ccc2nc(NC(=O)CSc3nccn3Cc3ccc(F)cc3)sc2c1`, the “activity, negative = inhibition” value was inactive: -21.8%. For `Cc1nc2ncccn2c1-c1csc(NCc2ccco2)n1`, the Potency was inconclusive: 35.5 µM [inhibitor, partial curve, poor fit]. In the case of `Cc1cc(NC(=O)CS(=O)(=O)c2cn(Cc3cccc(F)c3)c3ccccc23)no1`, the Potency is reported as inconclusive: 39.8 µM [inhibitor, partial curve, poor fit]. For `O=C(c1ccc(Cl)c(S(=O)(=O)N2CCCCCC2)c1)N1CCN(c2ccccn2)CC1`, the Potency was inconclusive: 28.2 µM [inhibitor, partial curve, poor fit]. With `CC1(C)Cc2nc3oc4c(N(CCO)Cc5ccccc5)ncnc4c3cc2CO1` the Potency was inconclusive: 31.6 µM [inhibitor, partial curve, poor fit]. With `COc1cccc(CNC(=O)C2CCCN(c3nc4ccccc4n4cccc34)C2)c1` (stereo not drawn) the Potency was inconclusive: 15.8 µM [inhibitor, partial curve]. With `CCN(c1ccccc1)S(=O)(=O)c1ccc(Cl)c(C(=O)Nc2ccncc2)c1` the Potency was inconclusive: 5.62 µM [inhibitor, full curve]. With `Clc1ccc(-c2cc(-c3ccccn3)on2)c(Cl)c1` the Potency was inconclusive: 11.2 µM [inhibitor, partial curve, poor fit]. With `COC(=O)c1[nH]c2ccccc2c1NC(=O)CN1CCN(c2cccc(OC)c2)C(C)C1` (stereo not drawn) the Potency was active: 28.2 µM. In the case of `N#Cc1ncc(-c2ccc3c(c2)OCCOCCOCCOCCO3)nc1C#N`, the Potency is reported as inconclusive: 39.8 µM [inhibitor, partial curve, poor fit]. With `CCCCCN1C=CC(=C2C(=O)c3ccccc3C2=O)C=C1` the Potency was inconclusive: 2.82 µM [inhibitor, partial curve, poor fit]. In the case of `CCOC(=O)c1ccc(N2C(=O)c3n[nH]c(-c4ccco4)c3C2c2cccc(O)c2)cc1` (stereo not drawn), the Potency is reported as inconclusive: 25.1 µM [inhibitor, partial curve, poor fit]. With `Cc1ccc(C(=O)CN2C(=O)c3ccccc3S2(=O)=O)cc1` the Potency was inconclusive: 14.1 µM [inhibitor, partial curve, poor fit]. With `CCCCN(CC)CCOc1cccc2ccccc12` the Potency was inconclusive: 39.8 µM [inhibitor, single point]. With `O=C(COC(=O)c1ccc(F)c([N+](=O)[O-])c1)NC(=O)NCc1ccccc1` the Potency was inconclusive: 31.6 µM [inhibitor, single point]. In the case of `O=C(OCn1ncc(Cl)c(Cl)c1=O)c1cccc(C(F)(F)F)c1`, the Potency is reported as inconclusive: 14.1 µM [inhibitor, partial curve, poor fit]. For `CC(=O)N1CCc2cc(S(=O)(=O)N3CCc4ccccc4C3)ccc21`, the Potency was inconclusive: 15.8 µM [inhibitor, partial curve, poor fit]. With `COc1ccc(-n2nnnc2SCc2nc(N)nc(N3CCOCC3)n2)cc1` the activity, negative = inhibition was inconclusive: -35.1% [inhibitor]. For `COc1ccccc1Nc1nc(NCCC(C)C)nc(N)c1[N+](=O)[O-]`, the activity, negative = inhibition was inconclusive: -36% [inhibitor]. With `O=c1[nH]ncn2cccc12` the Potency was inconclusive: 3.55 µM [inhibitor, partial curve, poor fit]. For `CN(C(=O)Cc1ccc(Cl)c(Cl)c1)[C@H](CN1CCCC1)c1cccc(N=C=S)c1`, the Potency was inconclusive: 39.8 µM [inhibitor, partial curve, poor fit]. For `O=c1[nH]c2ccccc2n1C1CCN(C(CCc2ccccc2)c2nnnn2-c2ccc3c(c2)OCCO3)CC1` (stereo not drawn), the Potency was inconclusive: 25.1 µM [inhibitor, partial curve, poor fit]. For `OC(CNC1CCCC1)COc1ccc(F)cc1` (stereo not drawn), the Potency was inconclusive: 5.01 µM [inhibitor, partial curve]. For `COc1ccccc1C1CCN(C(=O)c2cnn(-c3ccccc3)c2C)CC1`, the Potency was inconclusive: 39.8 µM [inhibitor, partial curve, poor fit]. In the case of `Cc1ccsc1C(=O)Nc1nc2ccccc2[nH]1`, the Potency is reported as inconclusive: 15.8 µM [inhibitor, single point]. In the case of `c1ccc2c(Nc3nc(N4CCOCC4)c4ccccc4n3)cccc2c1`, the Potency is reported as inconclusive: 28.2 µM [inhibitor, partial curve, poor fit]. With `COc1cccc(Cn2c(-c3nonc3NC(C)=O)nc3ccccc32)c1` the Potency was inconclusive: 14.1 µM [inhibitor, partial curve]. In the case of `O=C(Nc1nc(-c2ccccc2)cs1)c1cccs1`, the Potency is reported as inconclusive: 39.8 µM [inhibitor, single point]. In the case of `CCOc1ccc(C(C)=O)cc1CN1C(=O)C(=O)N(CC)C1=O`, the Potency is reported as inconclusive: 14.1 µM [inhibitor, partial curve, poor fit]. With `COc1ccc(N2CCN(c3ncnc4c3cnn4-c3ccc(F)cc3)CC2)cc1` the Potency was inconclusive: 10 µM [inhibitor, partial curve]. With `COc1ccc(CCNC(=O)COc2coc(CN3c4ccccc4CC3C)cc2=O)cc1OC` (stereo not drawn) the Potency was inconclusive: 22.4 µM [inhibitor, partial curve, poor fit]. With `CCOC(=O)CSc1nnc(NC(=O)c2cc([N+](=O)[O-])cc([N+](=O)[O-])c2)s1` the Potency was inconclusive: 35.5 µM [inhibitor, partial curve, poor fit]. For `O=C(c1nnsc1S(=O)c1ccc(Cl)cc1)N1CCOCC1` (stereo not drawn), the Potency was inconclusive: 35.5 µM [inhibitor, partial curve, poor fit]. In the case of `O=C1CC2(CCN(C(=O)c3ccccc3Cl)CC2)Oc2ccccc21`, the Potency is reported as inconclusive: 10 µM [inhibitor, partial curve]. With `Cc1oc(-c2cccc(Cl)c2)nc1CN1CCC(C(=O)NC(C)c2ccccc2)CC1` (stereo not drawn) the Potency was inconclusive: 35.5 µM [inhibitor, partial curve, poor fit]. For `CN(c1ccc(C(=O)NCc2cccnc2)cc1)S(=O)(=O)c1ccc(Cl)cc1`, the “activity, negative = inhibition” value was inactive: -31.9%. With `CCN(CC)S(=O)(=O)c1ccc(C)c(NC(=S)N2CCN(Cc3ccc4c(c3)OCO4)CC2)c1` the Potency was inconclusive: 20 µM [inhibitor, partial curve, poor fit]. With `Cc1ccc(NC(=O)/C(Cl)=C/c2ccccc2)cc1C` the Potency was inconclusive: 14.1 µM [inhibitor, single point]. With `CCCCCn1c(-c2ccco2)nc2nc3ccccc3nc21` the activity, negative = inhibition was inconclusive: -38% [inhibitor]. With `[O-]c1ccccc1-[n+]1c(-c2ccccc2)cc(-c2ccccc2)cc1-c1ccccc1` the Potency was inconclusive: 28.2 µM [inhibitor, single point]. In the case of `Fc1ccc(COc2cccc(CNCc3ccncc3)c2)cc1`, the Potency is reported as inconclusive: 8.91 µM [inhibitor, partial curve]. In the case of `O=C(Nc1ccc2c(c1)OCCO2)c1ccccc1F`, the Potency is reported as inconclusive: 15.8 µM [inhibitor, single point].
